Patent publication EP4603506A1, “NOVEL GLP-1 RECEPTOR ANTAGONIST, AND PHARMACEUTICAL COMPOSITION FOR PREVENTING OR TREATING CONGENITAL […] OR HYPOGLYCEMIA, COMPRISING SAME” (Hanmi Pharm. Co., Ltd., priority 2022, dated 2024)
Not every detail of the peptide structures is certain; ends, links or a residue may be inferred. Starred links: 1 amine or outer side, 2 acyl side, 3 side chain; linkers in the order of their positions; H or OH if unused. Residues, ends and D or L forms follow the SMILES beside them. Groups on a side chain read outwards from the residue. *: point of attachment. C20 diacid = O=C(O)CCCCCCCCCCCCCCCCCCC(=O)*; γGlu = O=C(O)[C@H](CCC(=O)[*:2])N[*:1]; AEEA = NCCOCCOCC(=O)O

Amino acid sequences for entries named in this document (tags omitted). Residues count along the entry.
UniProt P43220, 24-463: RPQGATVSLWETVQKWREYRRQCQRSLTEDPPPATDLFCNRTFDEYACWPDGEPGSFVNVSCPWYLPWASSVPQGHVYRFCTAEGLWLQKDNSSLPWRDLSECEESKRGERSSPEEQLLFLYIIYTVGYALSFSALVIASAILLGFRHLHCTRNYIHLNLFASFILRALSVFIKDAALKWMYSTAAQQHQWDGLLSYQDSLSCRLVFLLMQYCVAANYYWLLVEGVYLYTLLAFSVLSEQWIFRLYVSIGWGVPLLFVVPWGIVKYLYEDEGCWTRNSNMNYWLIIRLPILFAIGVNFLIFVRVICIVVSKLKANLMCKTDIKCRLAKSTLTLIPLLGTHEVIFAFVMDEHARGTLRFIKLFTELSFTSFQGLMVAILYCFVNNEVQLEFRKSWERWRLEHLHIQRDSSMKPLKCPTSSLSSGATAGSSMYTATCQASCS

Target: human GLP-1R (hGLP-1R) (Homo sapiens, UniProt P43220)
Assay: In vitro cell activity: cAMP inhibition (LANCE Ultra cAMP kit) in CHO cells expressing human GLP-1R, with GLP-1 added
Format: cell-based
Conditions: relative activity from IC50 of cAMP inhibition; 0.1 nM GLP-1 added; comparative substance exendin-3 (9-39) amide = 100
Experimental: The human GLP-1R-expressed CHO cells were cultured in a 384-well plate for 24 hours. Thereafter, the culture was removed, and 10 µL of each serially diluted substance was added to the plate, followed by incubation at room temperature for 30 minutes. Then, 5 µL of Eu-cAMP tracer was added, and then 5 µL of a buffer containing cAMP antibodies was added, followed by incubation at room temperature for 60 minutes. […]

## CC[C@H](C)[C@H](NC(=O)[C@H](Cc1ccccc1)NC(=O)[C@H](CC(C)C)NC(=O)[C@H](CCCNC(=N)N)NC(=O)[C@@H](NC(=O)[C@H](C)NC(=O)[C@H](CCC(=O)O)NC(=O)[C@H](CCC(=O)O)NC(=O)[C@H](CCC(=O)O)NC(=O)[C@H](CC(C)C)NC(=O)[C@H](Cc1ccc(O)cc1)NC(=O)[C@H](CO)NC(=O)[C@H](CO)NC(=O)[C@@H](NC(=O)[C@H](CC(=O)O)NC(C)=O)C(C)C)C(C)C)C(=O)N[C@@H](C)C(=O)N[C@@H](Cc1c[nH]c2ccccc12)C(=O)N[C@@H](CC(C)C)C(=O)N[C@H](C(=O)N[C@@H](CCCCN)C(=O)NCC(=O)NCC(=O)N1CCC[C@H]1C(=O)N[C@@H](CO)C(=O)N[C@@H](CO)C(=O)NCC(=O)N[C@@H](C)C(=O)N1CCC[C@H]1C(=O)N1CCC[C@H]1C(=O)N1CCC[C@H]1C(=O)N[C@@H](CO)C(=O)N[C@@H](CCCCNC(=O)COCCOCCNC(=O)COCCOCCNC(=O)CC[C@H](NC(=O)CCCCCCCCCCCCCCCCCCC(=O)O)C(=O)O)C(N)=O)C(C)C [SEQ ID NO: 20] (Ac-DVSSYLEEEAVRLFIAWLVKGGPSSGAPPPSK([AEEA-AEEA-γGlu-C20 diacid])-NH2)
  In vitro activity compared with comparative substance (%): 15.1%
